In all, about 400,000 compounds went through this assay and about 13,000 (3.2%) were called active. This list was built around the results that the source calls inconclusive (neither active nor inactive); the mix of calls is not that of the screen. The call rests on the fitted dose curve; in most records, active means well fitted cell-killing curve with a large enough effect; inconclusive means small, poorly fitted or top-dose-only effect, or effect the other way; inactive means flat fitted curve, though single readings scatter. A potency beside an inconclusive call is a rough fit, not a confirmed value.
Assay: qHTS assay for MDR1-selective chemotherapeutics: Primary screen using the drug-selected MDR subline cells KB-V1; further: nearly all actives have a fitted effect of over 60% in size
Details: KB-V1 MDR cells viability, CellTiter-Glo, 72 h; activity change, negative = cytotoxicity: at 46.1 µM (top of the series)
In short: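 Luminescent ATP read-out (CellTiter-Glo, 10 min) measures survival of drug-selected KB-V1 MDR cells after 72 h, 37 degrees C compound exposure. Medium: phenol-red-free DMEM, 10% FBS. Values from fitted concentration-response curves.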
On the % scale 0 is the no-effect control and ±100 the full control effect; potency means the concentration at half of the fitted maximal effect.

Q: With O=c1c(-c2nc3ccccc3s2)cccn1Cc1ccccc1 as the molecule, how does the Potency read?
A: Its Potency is inconclusive: 23.1 µM [cytotoxic, single point].

Q: With CCOc1ccccc1N1CC(c2nc3ccccc3n2CCCOc2ccccc2)CC1=O (stereo unspecified) as the molecule, how does the “activity change, negative = cytotoxicity” value read?
A: Its value is inactive: -18.6%.

Q: With Cc1oc(-c2ccc(Cl)cc2)nc1CN1CCC(C(=O)N2CCN(Cc3ccccc3)CC2)CC1 as the molecule, how does the Potency read?
A: The Potency was inconclusive: 6.51 µM [cytotoxic, partial curve, poor fit].

Q: For CCCNc1nc2nc3ccccn3c(=O)c2cc1C(=O)NCCN1CCOCC1, which Potency is on record?
A: Its Potency is inconclusive: 3.66 µM [rising, partial curve, poor fit].

Q: For CC(C)(C)NC(=O)C[C@H]1C[C@H](C(=O)N2CCOCC2)[C@@]2(CCC3CCCC3)c3[nH]c4cc(-c5ccco5)ccc4c3CCN2C1=O, which Potency is on record?
A: Its Potency is inconclusive: 29.1 µM [cytotoxic, single point].

Q: For CC(C)N(Cc1ccccc1)C(=O)c1cc2ccc3cccnc3c2[nH]1, which Potency is on record?
A: The Potency was inconclusive: 16.4 µM [cytotoxic, single point].

Q: Which Potency does the source give for COc1ccc2c(c1)CCc1cn3ncc(C#N)c3nc1-2 here?
A: Its Potency is active: 1.3 µM.

Q: For c1ccc(CSc2ncnc3c2ncn3C2CCCCO2)cc1 (stereo unspecified), which “activity change, negative = cytotoxicity” value is on record?
A: The value was inactive: -1.1%.

Q: With COCCCn1c(SCC(=O)NCc2ccco2)nc2sc3c(c2c1=O)CCC3 as the molecule, how does the “activity change, negative = cytotoxicity” value read?
A: Its value is inactive: 2.85%.

Q: Which Potency does the source give for C=CCC12C=C(OC)C(=O)OC(OC)(C1O)[C@H](c1ccc3c(c1)OCO3)[C@H]2C (stereo partly specified) here?
A: Its Potency is inconclusive: 8.2 µM [rising, partial curve].

Q: With N=c1sc2ccccc2n1-c1ccccc1 as the molecule, how does the Potency read?
A: Its Potency is inconclusive: 16.4 µM [cytotoxic, single point].

Q: For CCCN(CCC)C(C)C(=O)NCC1(c2ccccc2)CCCC1 (stereo unspecified), which “activity change, negative = cytotoxicity” value is on record?
A: The value was inactive: -4.1%.

Q: Which “activity change, negative = cytotoxicity” value does the source give for CCOc1ccc(/C=N/NC(=S)Nc2c(C)cccc2C)cc1 here?
A: The value was inactive: 0%.

Q: With Cc1ccc(-n2ncc3c2CC(C)(C)CC3NC(=O)Cc2c(C)noc2C)cc1 (stereo unspecified) as the molecule, how does the Potency read?
A: The Potency was inconclusive: 7.31 µM [cytotoxic, partial curve, poor fit].

Q: Which Potency does the source give for C=CCc1cc(C(=O)N2CCCCC2)ccc1O here?
A: The Potency was active: 20.6 µM.

Q: With COc1cccc(C2=NOC(C(=O)NCc3ccco3)C2)c1 (stereo unspecified) as the molecule, how does the Potency read?
A: The Potency was active: 20.6 µM.

Q: For COc1ccc(NC(=O)c2c(NCc3cccs3)sc3c2CCCCC3)cc1, which “activity change, negative = cytotoxicity” value is on record?
A: Its value is inactive: -11.1%.

Q: With CCOc1cccc(-c2cc(C(=O)Nc3ccon3)c3ccccc3n2)c1 as the molecule, how does the Potency read?
A: Its Potency is active: 16.4 µM.

Q: For Cn1nnnc1SCC(=O)Nc1cc(C(C)(C)C)nn1-c1ccccc1, which “activity change, negative = cytotoxicity” value is on record?
A: The value was inactive: 0.303%.

Q: With COC(=O)C1=C[C@@H](C(=O)OC)[C@@H]2C3=C(C(=O)[C@]2(C)NC(=O)c2ccccc2)[C@H](C)n2c(=O)n(-c4ccccc4)c(=O)n2[C@@H]3C1 as the molecule, how does the “activity change, negative = cytotoxicity” value read?
A: Its value is inactive: 14.6%.

Q: For O=C(COc1ccc2c3c(c(=O)oc2c1)CCC3)c1ccc2c(c1)OCO2, which Potency is on record?
A: The Potency was inconclusive: 18.4 µM [cytotoxic, single point].

Q: For C=C(C)CN1CCN(S(=O)(=O)c2ccc(C)c(N(C)S(=O)(=O)c3ccc(C)cc3)c2C)CC1, which Potency is on record?
A: Its Potency is inconclusive: 18.4 µM [cytotoxic, single point].

Q: With COc1ccc(NC(=O)CNC(=O)c2ccco2)cc1S(=O)(=O)Nc1cc(C)ccc1Br as the molecule, how does the Potency read?
A: Its Potency is inconclusive: 18.4 µM [rising, single point].

Q: With NC(=O)N/N=C/c1cn(-c2ccccc2)nc1-c1cccs1 as the molecule, how does the Potency read?
A: The Potency was inconclusive: 29.1 µM [cytotoxic, single point].

Q: Which Potency does the source give for O=C(Nc1cccc(Cl)c1)C1CCN(c2nc3ccccc3nc2C(F)(F)F)CC1 here?
A: The Potency was inconclusive: 11.6 µM [cytotoxic, partial curve, poor fit].

Q: Which activity change, negative = cytotoxicity does the source give for CC1(C(=O)Nc2ccc3c(c2)OCO3)CCN1C(=O)CC1CC1 (stereo unspecified) here?
A: The activity change, negative = cytotoxicity was inconclusive: 9.7%.

Q: Which Potency does the source give for COc1ccc(-c2oc3ncn(Cc4ccco4)c(=N)c3c2-c2ccc(OC)cc2)cc1 here?
A: Its Potency is inconclusive: 29.1 µM [cytotoxic, single point].

Q: With Cc1ccc(CNC(=O)CS(=O)(=O)Cc2nc(-c3ccc(C)cc3)oc2C)cc1 as the molecule, how does the Potency read?
A: The Potency was inconclusive: 0.58 µM [cytotoxic, partial curve].

Q: For COC(=O)c1ccc(N2C(c3ccsc3)=Cc3cc4c(cc3C2CC(=O)c2ccco2)OCO4)cc1 (stereo unspecified), which Potency is on record?
A: Its Potency is inconclusive: 0.58 µM [rising, full curve, poor fit].

Q: Which Potency does the source give for COc1ccccc1N1CCN(C(=O)c2cc(-c3cccs3)on2)CC1 here?
A: Its Potency is active: 18.4 µM.

Q: With O=C(/C=C/c1ccc(Cl)cc1Cl)Nc1ccncc1 as the molecule, how does the Potency read?
A: The Potency was inconclusive: 16.4 µM [cytotoxic, single point].

Q: Which Potency does the source give for COc1cccc(OCCNc2cc(N3CCOCC3)ccc2[N+](=O)[O-])c1 here?
A: Its Potency is active: 9.2 µM.

Q: For Cn1cnc2c1c(=O)n(Cc1cccc(Br)c1)c(=O)n2C, which “activity change, negative = cytotoxicity” value is on record?
A: Its value is inactive: -7.88%.

Q: For COc1ccc(C(=O)CC(=O)C(=O)Nc2cccc(C(C)=O)c2)cc1, which “activity change, negative = cytotoxicity” value is on record?
A: Its value is inactive: 0%.

Q: For C=CCNC(=O)c1ccc(S(=O)(=O)CC)c(Cl)c1Cl, which Potency is on record?
A: Its Potency is inconclusive: 0.92 µM [rising, partial curve, poor fit].

Q: Which “activity change, negative = cytotoxicity” value does the source give for O=C(Cn1c(SCCOc2ccccc2Cl)nc2ccccc21)N1CCOCC1 here?
A: The value was inactive: -12.4%.

Q: Which Potency does the source give for CN(c1cccc(Cl)c1)S(=O)(=O)c1cccc(C(=O)Nc2ccc3c(c2)CCC3)c1 here?
A: Its Potency is inconclusive: 13 µM [cytotoxic, partial curve, poor fit].

Q: Which “activity change, negative = cytotoxicity” value does the source give for Cc1ccc(N2C(=O)/C(=C/c3cccnc3)SC2=S)cc1 here?
A: Its value is inactive: 24.4%.

Q: Which Potency does the source give for O=C(Nc1cc(SCCO)cc([N+](=O)[O-])c1)c1ccc(Br)o1 here?
A: The Potency was active: 20.6 µM.

Q: For COc1ccc(CN(C)CC2CCCN(CCc3ccccc3C)C2)cc1O (stereo unspecified), which “activity change, negative = cytotoxicity” value is on record?
A: The value was inactive: -1.93%.

Q: For CCCC(=O)NC(=S)Nc1ccccc1F, which Potency is on record?
A: The Potency was inconclusive: 25.9 µM [rising, single point].

Q: With Cn1cccc1C(=O)NC(=O)COC(=O)CC12CC3CC(CC(C3)C1)C2 as the molecule, how does the Potency read?
A: The Potency was inconclusive: 14.6 µM [rising, partial curve].

Q: Which Potency does the source give for Oc1ccc(C=NNC(=S)Nc2cccnc2)nc1 here?
A: Its Potency is active: 3.66 µM.

Q: For N#Cc1nc(Cc2ccccc2)oc1NCc1ccccc1, which Potency is on record?
A: Its Potency is inconclusive: 23.1 µM [cytotoxic, partial curve, poor fit].

Q: With Nc1nc(-c2ccccn2)nc(N)c1Cc1ccccc1F as the molecule, how does the Potency read?
A: Its Potency is inconclusive: 3.26 µM [cytotoxic, full curve].

Q: For CC1CCCCC12NC(=O)N(CC(=O)OCC(=O)NCc1ccc(F)cc1)C2=O (stereo unspecified), which Potency is on record?
A: The Potency was inconclusive: 29.1 µM [rising, single point].

— PubChem BioAssay AID1347076 (National Center for Advancing Translational Sciences (NCATS), 2019)
